According to article PMC11321020:
No constants are given. Whether binding was seen depends on the method and setting. In cells and extracts the contact can be indirect. Some results given as binding are weak or reduced against the parent protein; the word gives no strength.

By UniProt entry, the sequences of proteins in these tests, tags left out.
UniProt P16110: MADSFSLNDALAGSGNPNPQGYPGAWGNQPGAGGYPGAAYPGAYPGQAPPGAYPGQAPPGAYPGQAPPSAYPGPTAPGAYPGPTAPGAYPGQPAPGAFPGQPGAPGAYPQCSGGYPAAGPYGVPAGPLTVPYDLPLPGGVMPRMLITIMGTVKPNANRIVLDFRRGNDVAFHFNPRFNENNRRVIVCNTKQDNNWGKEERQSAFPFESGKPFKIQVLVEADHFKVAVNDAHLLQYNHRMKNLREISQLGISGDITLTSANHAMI

Molecular target: T1, mouse-derived TREM2 (exogenous CO-IP construct) (mouse) (UniProt Q99NH8)
T1 sequence: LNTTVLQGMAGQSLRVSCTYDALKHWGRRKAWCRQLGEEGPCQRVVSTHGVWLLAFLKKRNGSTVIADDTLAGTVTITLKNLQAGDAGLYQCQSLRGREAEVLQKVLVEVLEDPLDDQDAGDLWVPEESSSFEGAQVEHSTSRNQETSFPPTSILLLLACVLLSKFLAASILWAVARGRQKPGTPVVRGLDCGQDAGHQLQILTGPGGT
Assay: co-IP; exogenous CO-IP of mouse-derived TREM2 and galectin-3 in 293T (Supplementary Fig. 3A-C); precipitating antibody not shown

binding: binds
Substance: mouse-derived galectin-3 (exogenous CO-IP construct) (from UniProt P16110 1-264) (ligand)
